Reference: PubChem BioAssay AID1259254 (NCATS, 2017)
Screen: 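Gene knock-downs that lead to re-replication, shown by excess G2 DNA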 (primary screen). Cell system: human HCT116 colorectal cancer cells. Reagent: single siRNA against human genes. Time to read-out: 3 days. Measured: 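Imaged Hoechst DNA stain sorts each cell into a cycle phase by DNA amount; per plate, G2 fraction set to 0% for non-targeting and 100% for GMNN siRNA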. Reading the numbers: G2 robust z-score: higher = more G2 cells, more excess DNA replication. Hit rule: 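Active siRNAs have a G2 robust z of 5 or more median absolute deviations over the median, which in these data means about 38% or higher of GMNN control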.
Here is one part, drawn at random, of about 59,000 deposited reagents. About 1,550 of them (2.6%) count as active. 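G2 share is only a proxy for re-replication; each gene was hit by three separate siRNAs, and active genes were retested.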 A number with no mark means an inactive call. Reagents against one gene are numbered here. Not all columns of the deposit are shown. Not given: the amount of reagent.

P2RY2 #1
- G2 robust z-score: -1.09

P2RY2 #2
- G2 robust z-score: 1.48

P2RY2 #3
- G2 robust z-score: 2.43

IGSF1 #1
- G2 robust z-score: 1.14

IGSF1 #2
- G2 robust z-score: -0.513

IGSF1 #3
- G2 robust z-score: 0.908

FHDC1 #1
- G2 robust z-score: -0.327

FHDC1 #2
- G2 robust z-score: 0.324

FHDC1 #3
- G2 robust z-score: 1.09

ACOT6 #1
- G2 robust z-score: 0.865

ACOT6 #2
- G2 robust z-score: 0.687

ACOT6 #3
- G2 robust z-score: 0.0882

SLC22A10 #1
- G2 robust z-score: -0.605

SLC22A10 #2
- G2 robust z-score: 0.552

SLC22A10 #3
- G2 robust z-score: -0.99

CIAO3 #1
- G2 robust z-score: 1.28

CIAO3 #2
- G2 robust z-score: -1.05

CIAO3 #3
- G2 robust z-score: 0.607
